No constants are given. Whether binding was seen depends on the method and setting. Binding seen in cells or lysates may run through a third protein. Some entries that bind do so weakly or less than the wild type. Sequences can lack the tags named with a protein.
Molecular target: AGIA-AirID-IκBα (human) (UniProt P25963)
Assay: co-IP; lysate of HEK293T cells stably expressing AGIA-AirID-IκBα transfected with FLAG constructs; IP lysis buffer (25 mM Tris-HCl pH 7.5, 150 mM NaCl, 1 mM EDTA, 1% NP-40, 5% glycerol); anti-AGIA antibody, protein A Dynabeads, 4 °C; anti-FLAG blot

Sequences of proteins named here, by UniProt entry; tags and fusion partners are left off.
UniProt P25963: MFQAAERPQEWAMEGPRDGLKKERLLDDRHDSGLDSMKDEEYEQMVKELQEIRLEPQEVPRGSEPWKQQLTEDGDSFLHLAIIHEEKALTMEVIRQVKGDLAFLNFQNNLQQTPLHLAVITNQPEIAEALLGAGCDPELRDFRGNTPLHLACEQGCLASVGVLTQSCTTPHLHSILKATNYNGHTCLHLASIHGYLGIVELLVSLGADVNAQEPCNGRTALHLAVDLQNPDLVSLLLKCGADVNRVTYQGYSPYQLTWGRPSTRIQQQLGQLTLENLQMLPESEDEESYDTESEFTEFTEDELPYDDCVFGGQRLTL
UniProt Q96J77: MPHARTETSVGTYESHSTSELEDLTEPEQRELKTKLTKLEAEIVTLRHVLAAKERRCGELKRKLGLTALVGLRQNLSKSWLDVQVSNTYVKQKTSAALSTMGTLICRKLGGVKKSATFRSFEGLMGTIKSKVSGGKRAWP

| binding | Molecule |
| --- | --- |
| binds | TPD52L3 in pCAGGS-MCS-FLAG (from UniProt Q96J77 1-140) |
| binds | PRDX3 in pCAGGS-MCS-FLAG (protein, UniProt P30048 62-256) APAVTQHAPYFKGTAVVNGEFKDLSLDDFKGKYLVLFFYPLDFTFVCPTEIVAFSDKANEFHDVNCEVVAVSVDSHFSHLAWINTPRKNGGLGHMNIALLSDLTKQISRDYGVLLEGSGLALRGLFIIDPNGVIKHLSVNDLPVGRSVEETLRLVKAFQYVETHGEVCPANWTPDSPTIKPSPAASKEYFQKVNQ |
